# Source: the supplement of paper PMC10338343
# ± gives the standard deviation. This is a selection; strong and weak results do not stand in their true shares. Many of these values have a large error.
# Tested on: MILI (PIWIL2) piRISC loaded with piRNA #2 (26 nt)
# Experiment: pre-steady-state target cleavage rate (min^-1); MIWI and MILI are mouse PIWI proteins and EfPiwi is from a freshwater sponge; tags in brackets are library labels; higher = faster piRNA-guided slicing of the target
# Conditions: guide: piRNA #2 5'p-UUAGGUAACCCAGUAGAUCCAGAGGA; auxiliary factor: 500 nM mouse GTSF1
# Outline: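 For Cleave-'n-Seq, a transcribed, DNA-blocked target RNA library […] met 1 nM active affinity-purified piRISC with one synthetic guide at 33 °C for 0–8 or 0–960 min in HEPES–potassium acetate buffer, with or without 500 nM GTSF1 partner protein. Uncleaved targets were sequenced and normalised to depth and weakly complementary targets, with three trials pooled and k3 capped at 0.0001 min^-1. A burst-and-steady-state fit supplied the pre-steady-state cleavage rate.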
# 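Note: 1 nM active piRISC with 0.1 nM target library at 33 °C single turnover.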
row,Sequence,pre-steady-state target cleavage rate
1,CUUAAGGAGACCUUCUACAGGCUUACCUAA,0.000521 ± 0.014
2,CUUAAGGAGACCAUCUACUGGGUUACCAAA,0.000732 ± 0.01
3,CUUAAGGAGACCAUCUACUAGGUUACCUAA,0.00108 ± 0.0071
4,CUUAAGGACUGGAUCUACUGGGUUACCCUAA,0.00158 ± 0.018
5,CUUAAGGAGACGAUCUACUGGGUUAGCUAA,0.00056 ± 0.0092
6,CUUAAGGAGACGAUCUUGAGGGUUACCUAA,0.000764 ± 0.0099
7,CUUAAGGAGACCAUCUACAGGGUUACCUAA,0.00227 ± 0.0047
8,CUUAAGGAGACCUACUACUGGGUUGACCUAA,0.000282 ± 0.039
9,CUUAACCUCUGGAUCUACUCGGUUACCAAA,0.000971 ± 0.014
10,CUUAAGGAGACGAUCAACUGGGUUACCUAA,0.00125 ± 0.0055
11,CUUAAGGACUCGAUCUACUGGGUAACCUAA,0.00424 ± 0.0077
12,CUUAAGGAGACCUACUCCUGGGUUACCUAA,0.000934 ± 0.015
13,CUUAAGCUCUGGAUCUACUGGGUAUGGAUA [g8:g24:cont:t1A],0.000397 ± 0.029
14,CUUAAGGUCUGGAUCUACUCGGUUACCUUA,0.000557 ± 0.021
15,CUUAUCCUCUGGAUCUACACCCAAUGGAUA [g13:g26:cont:t1A],0.000178 ± 0.033
16,CUUAAGGUCUGGAUCUACUGGCUUUCCUAA,0.000261 ± 0.024
17,CUUAAGGAGUGCAUGUACUGGGUUACCUAA,0.000307 ± 0.03
18,CUUAAGCACUGCAUCUACUGGGUUACCUAA,0.0725 ± 0.015
19,CUUAAGGAGACGAUCAUACUGGGUUACCUAA,0.000623 ± 0.014
20,CUUAAGGAGACCUUCAACUGCGUUACCUAA,0.000233 ± 0.038
21,CUUAAGGAGAGGAUCUACUGGGUUACACUAA,0.00101 ± 0.013
22,CUUAAGGAGACCUUCUAACUGGGUUACCUAA,0.0005 ± 0.013
23,CUUAACCUCUGGAUCUACUGGUGUUACCUAA,0.0013 ± 0.0068
24,CUUAAGGAGACCAUCUGACUGGGUUACCUAA,0.000219 ± 0.027

# 2 entries picked at random from the list so far:
row,Sequence,pre-steady-state target cleavage rate
17,CUUAAGGAGUGCAUGUACUGGGUUACCUAA,0.000307 ± 0.03
19,CUUAAGGAGACGAUCAUACUGGGUUACCUAA,0.000623 ± 0.014

# (continued)

row,Sequence,pre-steady-state target cleavage rate
1,CUUAAGGACUGGAUCUACUGGGUCACCUAA,0.00106 ± 0.026
2,CUUAUCCUCAGGAUCUACUCGGUUACCUAA,0.00098 ± 0.018
3,CUUAUCCUCUGGAUCAACUCGGUUACCUAA,0.000953 ± 0.013
4,CUUAACCUCUGGAUCUACUCGGUUACCUAA,0.00359 ± 0.005
5,CUUAAGGAGACGUUCUACUCGGUUACCUAA,0.000176 ± 0.039
6,CUUAAGGAGUGCAUCUACUGGGUAACCUAA,0.00169 ± 0.011
7,CUUAAGCUCUGCAUCUACUGGCUUACCUAA,0.00185 ± 0.0066
8,CUUAACCUCUGGAUCUACUGGCGUUACCUAA,0.0016 ± 0.0048
9,CUUAAGGACUGGAUCAACUGGGUAACCUAA,0.000731 ± 0.024
10,CUUAAGGAGACCUAGAUGAGGGAUUACCUAA,0.000105 ± 0.061
11,CUUAAGGAGAGGAACUACUGGGUUACCUUA,0.00152 ± 0.009
12,CUUAACCUCUGCAUCUACAGGGUUACCUAA,0.0773 ± 0.014
13,CUUAACCUCAGGAUCUACUCGGUUACCUAA,0.00154 ± 0.012
14,CUUAAGGACUGGAUCUACUGGGUUACGUUA,0.00567 ± 0.0069
15,CUUAAGGUCUGGAUCUCACUGGGUUACCUAA,0.000441 ± 0.014
16,CUUAAGGAGACCAUCUACUGGGUUACCUAC [g2:g18:cont:t1C],0.0011 ± 0.013
17,CUUAAGGUCUGGAUGUACUGGGAUACCUAA,0.0141 ± 0.01
18,CUUAAGGAGACCUACUACUGGGUAUACCUAA,0.0005 ± 0.012
19,CUUAAGGAGUGGUUCUACUCGGUUACCUAA,0.000548 ± 0.021
20,CUUAAGGAGACGAACUACAGGGUUACCUAA,0.00116 ± 0.0077
21,CUUAAGGAGACCAUCUACUUGGGUUACCUAA,0.000776 ± 0.011
22,CUUAAGGAGACCUUCUACUGGGUCUACCUAA,0.000497 ± 0.021
23,CUUAAGGAGUGGAACUACUGGGAUACCUAA,0.000647 ± 0.017
24,CUUAAGGAGACCUUCUUACUGGGUUACCUAA,0.000161 ± 0.021

row,Sequence,pre-steady-state target cleavage rate
1,CUUAAGGACUGGAUCUACUGGAUUACCUAA,0.003 ± 0.011
2,CUUAAGGACUGGAACUACUGGGUUACGUAA,0.00202 ± 0.014
3,CUUAAGCUCUGGAUCUACUGGCUUACCAAA,0.000391 ± 0.027
4,CUUAAGGAGACCUAGUACUGGGUUACUAA,0.000143 ± 0.036
5,CUUAAGGAGAGGAUCUACUGGGUUACUAA,0.00033 ± 0.03
6,CUUAAGGUCUGGAUCUACAGGGUUAGCUAA,0.0446 ± 0.012
7,CUUAAGGAGACCAUCUUCAGGGUUACCUAA,0.00174 ± 0.0052
8,CUUAAGGACUGAGAUCUACUGGGUUACCUAA,0.0114 ± 0.014
9,CUUAUCCUCUGGAUCUACUGGCUAACCUAA,0.000544 ± 0.019
10,CUUAUCCUCUCCUUCUACUGGGUUACCUAA,0.106 ± 0.023
11,CUUAAGGAGACGAUCUACUAGGUUACCUAA,0.0037 ± 0.0043
12,CUUAUACUCUGGAUCUACUGGGUUACCUAA,0.0651 ± 0.014
13,CUUAAGGAGUGGAUCUACUGGGUUACCCAA,0.0032 ± 0.0046
14,CUUAAGCUCUGGAUCUACUGGAGUUACCUAA,0.00227 ± 0.006
15,CUUAUCCUCUGGAACUACUGGGUUACGUAA,0.197 ± 0.068
16,CUUAAGGAGAGGAUCUACUGGGUUACGUUA,0.000696 ± 0.018
17,CUUAAGGAGACCUACUACUGGUUACCUAA,0.000237 ± 0.019
18,CUUAAGGAGGGGAUCUACUGGGUUACCUAA,0.0293 ± 0.022
19,CUUAAGGAGACCUUCUACUGGGUUGACCUAA,0.000778 ± 0.014
20,CUUAAGGAGACGAACUACUGGGUUACCUAA,0.000127 ± 0.042
21,CUUAACCUCAGGAUCUACUGGCUUACCUAA,0.0013 ± 0.01
22,CUUAAGGAGACCUAGAUCAGGGUUACCUAA,0.000383 ± 0.013
23,CUUAAGCUCUGGAUGUACUCGGUUACCUAA,0.00165 ± 0.0054
